Literature values as cited in patent publication US7820159B2, “MN/CA IX and EGFR pathway inhibition” (Instiute of Virology of the Slovak Academy of Sciences, priority 2006, dated 2010).
The name of at least one read-out is uncertain.

Conditions: cited from earlier work

For O=C(NOC[C@H](O)CO)c1ccc(F)c(F)c1Nc1ccc(I)cc1F [PD-0325901], the “Bioavailability compared with CI-1040” value is given as “improved”.
